# Measured values published in paper PMC6560169.
# Amino acid sequences for entries named in this document (tags omitted). Residues count along the entry.
# UniProt Q9I6M8, residues 22-165: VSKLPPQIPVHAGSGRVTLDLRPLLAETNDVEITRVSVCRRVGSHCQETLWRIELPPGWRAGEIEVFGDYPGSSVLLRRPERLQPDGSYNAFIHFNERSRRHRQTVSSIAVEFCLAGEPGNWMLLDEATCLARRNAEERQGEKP
# These are yes or no findings as the source states them, for the method shown. Some results given as binding are weak or reduced against the parent protein; the word gives no strength.
# How the values were obtained:
# [1] = target: Tli3 (PA0261) after its signal sequence, fused upstream of the T18 or T25 domain (Pseudomonas aeruginosa) (UniProt Q9I6M8); experiment: two-hybrid; bacterial adenylate cyclase two-hybrid (BACTH): fusions to T18 and T25 of the Bordetella adenylate cyclase in E. coli BTH101, spotted on X-gal/IPTG plates, 30°C
# [2] = target: Tli3 (PA0261) after its signal sequence, fused downstream of the T18 or T25 domain (Pseudomonas aeruginosa) (UniProt Q9I6M8); experiment: as above
Substance,binding [1],binding [2]
"Tli3 (PA0261) after its signal sequence, fused upstream of the T18 or T25 domain (from UniProt Q9I6M8 22-165)",binds,
"Tli3 (PA0261) after its signal sequence, fused downstream of the T18 or T25 domain (from UniProt Q9I6M8 22-165)",binds,binds
